Plain letter strings leave the end groups untold. Some peptides are written in HELM: one residue between dots, names in brackets for other building blocks, links after the first $.
Experiment: general procedure: Fmoc solid-phase peptide synthesis; Preloaded Wang resins (0.58–0.79 mM/g); TCTU/HOBt/DIEA
Conditions: whole synthesis, RP-HPLC, trifluoroacetate salts

Substance: PEPTIDE1{Y.I.N.Q.M.P.Q.K.S.R.E}$$$$V2.0
- final HPLC purity: 91.0%

Substance: IYEAVNKVSPRAGQF
- final HPLC purity: 99.0%

Substance: PEPTIDE1{Y.I.N.Q.M.P.Q.K.S.R.E.A}$$$$V2.0
- final HPLC purity: 96.0%

Substance: PEPTIDE1{V.T.G.R.F.A.G.H.P.A.A.Q}$$$$V2.0
- final HPLC purity: 97.0%
